Laboratory results taken from paper doi:10.1101/2020.11.06.371260.
These are yes or no findings as the source states them, for the method shown. For some assays here: Binding seen in cells or lysates may run through a third protein. Some entries that bind do so weakly or less than the wild type. Where a sequence is shown, tags or fusion partners need not be part of it.

How the values were obtained:
[1] = target: T1, AtEXO70B1, yeast two-hybrid fusion (Arabidopsis thaliana) (UniProt Q9FGH9); test: two-hybrid
T1 sequence: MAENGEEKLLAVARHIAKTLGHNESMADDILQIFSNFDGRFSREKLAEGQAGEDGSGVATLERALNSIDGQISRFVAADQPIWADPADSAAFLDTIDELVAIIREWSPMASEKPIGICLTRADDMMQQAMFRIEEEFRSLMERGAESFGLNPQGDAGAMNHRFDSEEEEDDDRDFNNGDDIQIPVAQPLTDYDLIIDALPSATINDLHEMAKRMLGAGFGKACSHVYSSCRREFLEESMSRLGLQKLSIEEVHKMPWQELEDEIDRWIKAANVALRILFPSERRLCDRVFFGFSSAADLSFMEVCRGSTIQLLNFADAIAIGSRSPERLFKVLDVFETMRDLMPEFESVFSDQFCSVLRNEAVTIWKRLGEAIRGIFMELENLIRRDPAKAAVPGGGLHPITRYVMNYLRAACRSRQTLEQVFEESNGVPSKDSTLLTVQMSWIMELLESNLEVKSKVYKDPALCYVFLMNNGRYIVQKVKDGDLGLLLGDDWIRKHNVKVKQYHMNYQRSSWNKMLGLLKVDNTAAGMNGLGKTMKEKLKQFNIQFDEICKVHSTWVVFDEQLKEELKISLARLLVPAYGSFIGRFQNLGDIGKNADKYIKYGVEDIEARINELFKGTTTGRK

[2] = target: T2, AtEXO70B1 fused C-terminally with nVENUS (Arabidopsis thaliana) (UniProt Q9FGH9); test: split reporter
T2 sequence: T1 sequence

[3] = target: AtEXO70B1-AB truncation (1 to 388 amino acids), yeast two-hybrid fusion (Arabidopsis thaliana) (UniProt Q9FGH9); test: two-hybrid
[4] = target: T3, Arabidopsis SEC15B, yeast two-hybrid fusion (Arabidopsis thaliana) (UniProt F4JHH5); test: two-hybrid
T3 sequence: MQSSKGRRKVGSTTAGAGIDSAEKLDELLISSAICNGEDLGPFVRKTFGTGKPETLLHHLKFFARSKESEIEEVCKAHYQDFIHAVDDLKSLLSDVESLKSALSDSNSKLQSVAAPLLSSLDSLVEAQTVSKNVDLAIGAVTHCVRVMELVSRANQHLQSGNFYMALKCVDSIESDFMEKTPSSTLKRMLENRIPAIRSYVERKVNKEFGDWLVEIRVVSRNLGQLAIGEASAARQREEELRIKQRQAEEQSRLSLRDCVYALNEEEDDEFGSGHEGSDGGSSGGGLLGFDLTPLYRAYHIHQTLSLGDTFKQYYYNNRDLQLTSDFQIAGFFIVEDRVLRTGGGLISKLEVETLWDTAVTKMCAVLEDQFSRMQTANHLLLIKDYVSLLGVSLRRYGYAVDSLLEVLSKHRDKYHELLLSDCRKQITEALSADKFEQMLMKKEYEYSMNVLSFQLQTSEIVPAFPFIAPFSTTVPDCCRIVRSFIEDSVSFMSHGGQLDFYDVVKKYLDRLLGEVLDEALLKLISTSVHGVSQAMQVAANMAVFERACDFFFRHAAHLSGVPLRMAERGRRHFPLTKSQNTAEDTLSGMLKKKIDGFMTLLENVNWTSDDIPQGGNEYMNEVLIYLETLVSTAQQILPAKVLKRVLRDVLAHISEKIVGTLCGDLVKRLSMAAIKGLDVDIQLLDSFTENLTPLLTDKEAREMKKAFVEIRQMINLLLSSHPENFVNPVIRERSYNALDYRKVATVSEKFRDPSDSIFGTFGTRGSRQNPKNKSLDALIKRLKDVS

[5] = target: T4, Arabidopsis SEC15B, BiFC fusion (Arabidopsis thaliana) (UniProt F4JHH5); test: split reporter
T4 sequence: T3 sequence

B1: AtEXO70B1, yeast two-hybrid fusion (protein, UniProt Q9FGH9 1-624)
chain: T1 sequence
- binding [1]: binds

B2: AtEXO70B1 fused C-terminally with nVENUS (protein, UniProt Q9FGH9 1-624)
chain: T1 sequence
- binding [2]: binds

B3: Arabidopsis SEC15B, yeast two-hybrid fusion (protein, UniProt F4JHH5 1-787)
chain: T3 sequence
- binding [3]: binds

B4: Arabidopsis EXO84B, yeast two-hybrid fusion (protein, UniProt Q9LTB0 1-752)
chain: MAAKTARSKATPTKENGVRVEEGLSLFKSDKFDADAYVQSKCSINEKDIKQLCSYLLDLKRASAEEMRRSVYANYPAFIRTSKEISDLEGELSSIRNLLSTQATLIHGLADGVNIDDDKVSDESLANGLLNFEDNGLSDLEKWATEFPDHLDALLAERRVDEALAAFDEGEILVSQANEKHTLSSSVLSSLQFAIAERKQKLADQLAKAACQPSTRGGELRSAIAALKRLGDGPRAHTVLLDAHFQRYQYNMQSLRPSSTSYGGAYTAALSQLVFSAISQASSDSLGIFGKEPAYSSELVTWATKQTEAFSLLVKRHALASSAAAGGLRAAAECAQIALGHCSLLEARGLSLCPVLLKHFKPIVEQALEANLKRIEENTAAMAAADDWVLTSPPAGSRHASTAFQNKLTSSAHRFNLMVQDFFEDVGPLLSMQLGSKALEGLFRVFNSYVDVLVRALPGSIEEEDPNFESSCNKIVQMAETEANQLALLANASLLADELLPRAAMKLSLDQTGQRTDDLRRPLDRQNRNPEQREWKRRLLSTVDKLKDAFCRQHALDLIFTEEGDSHLSADMYVNIDENGEDVDFFPSLIFQELFAKLNRMASLAADMFVGRERFAISLLMRLTETVILWLSGDQSFWDDIEEGPRPLGPLGLRQLYLDMKFVICFASQGRYLSRNLHRGTNEIISKALAAFTATGIDPYSELPEDDWFNDICVDAMERLSGKTKGNNGDVHSPTASVSAQSVSSARSHGSY
- binding [1]: binds
- binding [4]: binds
- binding [3]: binds

B5: Arabidopsis EXO84B, BiFC fusion (protein, UniProt Q9LTB0 1-752)
chain: B4 chain
- binding [2]: binds
- binding [5]: binds

B6: Arabidopsis SEC5A, yeast two-hybrid fusion (protein, UniProt Q8S3U9 1-1090)
chain: MSSDSNDLDEDELLQMALKEQAKRDLTYQKPPSSSARKPVANLVQQPRQQKPVAAAAAPPKKSAAAVRKPSMDEDEESEVELLSISSGDDDLEREREIGGSSGGAGRGRGSDVREKGRARKEDDGAWDGGEPDCWKRVNEAELARRVRDMRESRTAPVVQKVEGKAPAPGKKVALTSLQSLPRGMECIDPLKLGIIDNKTLRLITESSGSPSKAEKVDNTLREKLVYFSDHFDPKLFLSRIHQDTTAADLEAGALGLKSDLKGRNLQRKQLVKDNFDCFVSCKTTIDDIESKLKRIEEDPEGSGTTHLFNCMKSVTSRANLAFEPLFERQAQAEKIRSVQGMLQRFRTLFNLPSIIRSSISKGEYDLAVREYKKAKSIALPSHVNILKRVLEEVEKVMLEFKGTLYKSMEDPKIDFTSLENTVRLLLELEPESDPVWHYLNVQNHRIHGLLEKCTYDHEARVEILRNDTHEKAISDAKWQQIQQNGVSYSDTASSNENNAVQVDLQSVEFPSEEIDILKGRYIKRLTAVLVHHIPVFWKTAISIFSGKFAKSSQVTDTSANKAEEKVTEARYSTHSLEEVAGMIRKTISVYEAKVNSTFCDFDESCILRPFMSDAINEVSKACQAFEAKESTPHSAVVALRKIQAEITKIYIQRLCSWMRASTEGISKEETWIPVSILERNRSPYAISYLPLAFRSVIVSGMEQVNLMILSVKSEAAKSEDMFAQIEEIIISVRLAFLNCFLDFAAHLEQIGADLSQSTSRQDNWKNGYSDEHQEEPSANTYGSVIDPHRRLLMVLSNIGYCKDELASELYNKFKYTWLQSRDKNEDSSDLQDLIMSFSGLGEKVLEHYTFAKANLIRTAATNYLLDSGIQWGSAPQVKGIRDAAVELLHTLVAVHAEVFAGAKPLLDKILGVLIEGLIDTFLSVVEENRSSDLRSIDANGFCQLMFELEYFETVLYSYFTSAATESLKSLQGTVLEIAIESISEAVETPGHNRRPTRGSEDTVSDDKQSVSADDLLALTKQCSNELLQQELERTRVNTACFAESAPLESTPPLPKATYSSFRGSMDSPSRNYRGSQSSGSPINARPRRR
- binding [1]: binds
- binding [3]: binds

B7: Arabidopsis SEC5A, BiFC fusion (protein, UniProt Q8S3U9 1-1090)
chain: B6 chain
- binding [2]: binds
